Reference: patent US20030050283A1, “Composition for the treatment and/or prevention of macular degeneration, method for its manufacture, and its use for treating the eye” (priority 2001, published 2003)
Not every entry of the source has a single result; some have several. This is not the full list of results. The source may hold further records. Values given together read as repeated measurements on other runs, samples or individuals.

Amino acid sequences for entries named in this document (tags omitted).
UniProt P00406, whole entry: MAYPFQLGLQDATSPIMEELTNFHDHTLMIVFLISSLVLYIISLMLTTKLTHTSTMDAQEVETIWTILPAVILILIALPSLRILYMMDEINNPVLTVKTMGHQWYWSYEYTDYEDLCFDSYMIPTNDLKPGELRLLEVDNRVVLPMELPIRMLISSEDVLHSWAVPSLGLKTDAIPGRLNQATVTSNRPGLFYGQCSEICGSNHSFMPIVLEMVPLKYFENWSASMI
UniProt P05505, whole entry: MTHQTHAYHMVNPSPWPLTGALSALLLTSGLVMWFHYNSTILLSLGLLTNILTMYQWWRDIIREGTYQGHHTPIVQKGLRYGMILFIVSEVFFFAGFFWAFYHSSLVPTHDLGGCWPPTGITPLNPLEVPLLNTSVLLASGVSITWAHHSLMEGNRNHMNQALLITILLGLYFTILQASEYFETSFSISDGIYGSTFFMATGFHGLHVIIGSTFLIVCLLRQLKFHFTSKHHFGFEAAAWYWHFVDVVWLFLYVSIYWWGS

Biological target: COX (Rattus norvegicus, UniProt P00406+P05503+P05505)
Assay: Binding of [3H]-A2E to COX by co-precipitation
Conditions: 20 min

How did the “Molecules A2E/molecules protein” value (COX + CL, darkness) turn out when `CC1=C(/C=C/C(C)=C/C=C/C(C)=C/c2cc(/C=C/C=C(C)/C=C/C3=C(C)CCCC3(C)C)cc[n+]2CCO)C(C)(C)CCC1` [A2E, N-retinyl-N-retinylidene ethanolamine] was run?
Its value is 1 and 1.1 +/− 1.3 (n = 3).

What about the “Molecules A2E/molecules protein” value (COX, darkness, [3H]-A2E 40 μM) of the same molecule?
The value was 17 and 17.0 +/− 0.5 (n = 4).

What about the “Molecules A2E/molecules protein” value (COX, exposure to light, [3H]-A2E 40 μM) of the same molecule?
The value was 13 and 12,8 +/− 4,7 (n = 4).
